Experimental findings from PMC6411202 are described below.

Amino acid sequences for entries named in this document (tags omitted).
UniProt Q92597: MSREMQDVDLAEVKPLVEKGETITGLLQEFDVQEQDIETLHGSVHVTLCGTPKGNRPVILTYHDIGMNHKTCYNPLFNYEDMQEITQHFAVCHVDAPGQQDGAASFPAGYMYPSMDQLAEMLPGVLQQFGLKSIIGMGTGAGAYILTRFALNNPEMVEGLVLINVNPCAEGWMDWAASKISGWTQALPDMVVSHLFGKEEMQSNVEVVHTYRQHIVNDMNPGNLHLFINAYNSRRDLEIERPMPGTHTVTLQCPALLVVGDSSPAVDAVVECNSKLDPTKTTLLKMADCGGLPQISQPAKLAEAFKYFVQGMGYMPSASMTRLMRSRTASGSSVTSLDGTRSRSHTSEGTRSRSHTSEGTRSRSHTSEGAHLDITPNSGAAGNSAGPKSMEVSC
UniProt P12004: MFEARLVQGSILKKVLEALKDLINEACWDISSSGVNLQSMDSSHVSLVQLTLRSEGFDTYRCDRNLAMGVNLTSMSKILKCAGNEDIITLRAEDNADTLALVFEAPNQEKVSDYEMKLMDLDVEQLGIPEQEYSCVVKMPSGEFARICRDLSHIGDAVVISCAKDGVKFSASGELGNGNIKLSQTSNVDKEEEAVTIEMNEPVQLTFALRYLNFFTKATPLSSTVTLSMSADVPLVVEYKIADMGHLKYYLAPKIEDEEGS

The target of this test is Strep-FLAG (SF)-tagged NDRG1, expressed in iSLK.RGB cells (human (cDNA from HEK293T)) (UniProt Q92597). Put plainly: affinity purification with mass spectrometry; tandem affinity purification of SF-tagged NDRG1 from iSLK.RGB lysate: Strep-Tactin Sepharose, desthiobiotin elution, then anti-FLAG M2 gel 4 hr at 4°C, 3xFLAG peptide elution; buffer W (50 mM Tris pH 7.9, 100 mM KCl, 0.1% Triton-X100); eluate to MS.

These are yes or no findings as the source states them, for the method shown. In cells and extracts the contact can be indirect. These calls come from enrichment with a bait or labelling near it, and not all partners need be listed.

Consider “proliferating cell nuclear antigen (PCNA), endogenous in iSLK.RGB cells (from UniProt P12004 1-261)”, for which the binding result is “binds”.
